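Assay on Mycobacterium tuberculosis, filed only as a heat shock assay from Cornell; the read-out is not stated. The concentration is filed as 10 mM, unlikely as a test dose, so the dose is not known. Direction is inferred from retests: higher values go with stronger inhibition. Size under these conditions: about 69,000 compounds, about 930 of them at 50% or above in at least one test.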

Values are the deposited “Percent Effect”, in %.
The controls that fix the scale are not given in the record; negative values are as filed.
Compounds were drawn at random from those tested, without regard to their results.

compound | Percent Effect
CC(=O)Nc1nc(C(=O)N2CCCC(n3ccnc3)C2)cs1 (centres undefined) | 5.356%
Cc1nccc(C(=O)N2CCCC2c2c(C)nn(C)c2C)n1 (centres undefined) | -10.19%
CC(NC(=O)COc1ccc(F)cc1)c1nnc2n1CCCCC2 (centres undefined) | 7.534%
Cc1ccc(OCCC(=O)NC2CCc3nccn3C2)cc1 (centres undefined) | -43.24%
COc1ccc(-c2noc(C(CC(C)C)N3CCCCC3=O)n2)cn1 (centres undefined) | 2.385%
CSc1ccc(CNC2CCN(CCc3ccncc3)CC2)cc1 | 5.943%
O=C(C1CCOCC1)N1CCc2ncc(CN3CCCC3)n2CC1.O=C(O)C(F)(F)F | 6.403%
Cc1noc(CN2CCN(Cc3cccs3)CC2)n1 | -8.553%
O=C(O)CC(O)(CC(=O)O)C(=O)O.[H][C@@]12CC[C@@](O)(c3ccc(C)cn3)[C@]1([H])CN(Cc1cnc(OC)nc1)C2 | -9.242%
CCn1ncc2c1CCCC2NCc1ccccc1N1CCOCC1 (centres undefined) | -4.721%
CCn1cnnc1CNC(=O)N1CCOC(c2ccc(F)cc2)C1 (centres undefined) | -120.7%
[H][C@@]12CNC[C@]1([H])[C@H]2C(=O)N1CCN(c2ccc(OC)cc2)C(C)(C)C1 | -44.32%
Nc1cc(C(=O)NCC2CCN(CCc3ccccc3)C2)ccn1 (centres undefined) | 8.667%
Cc1ccc(-c2cc(CNC(=O)N3CCCN(C)CC3)on2)cc1 | -11.31%
CC(C)c1nn(C)c(N(C)C)c1CNCCC(=O)N(C)C.Cl | 12.45%
COCCO[C@@H]1CCN(Cc2csc(C)n2)[C@H]1Cc1ccccc1.O=C(O)C(F)(F)F | -7.666%
CC(C)NC(=O)C1(Cc2ccccc2-c2ccccc2)CCCNC1 (centres undefined) | -12.53%
COc1ccccc1OCCN1CCCCC1Cn1cncn1 (centres undefined) | -15.93%
Cc1cc(N(C)Cc2cc(C(C)(C)C)n[nH]2)nc(-c2cccnc2)n1 | 5.652%
O=C(O)C(F)(F)F.[H][C@@]12CCN(c3nnc(C)s3)C[C@@]1([H])O[C@@H](C(=O)N(C)C)C2 | 7.027%
Cc1cc(C(=O)NCc2cccnc2N2CCc3ccccc3C2)[nH]n1 | -32.03%
CN(CCCn1cnc2c(N)ncnc21)Cc1ccccc1 | -14.46%
Fc1ccc(CN2CCCN(Cc3cscn3)CC2)cc1 | 11.45%
O=C(O)c1c(-c2ccncc2)ncc2c1CCN(Cc1ccco1)C2 | -8.62%
CC(C)(O)CSCCNC(=O)c1ccc(F)cc1Cl | 8.498%
COc1ccc(C(=O)NCC(c2cccn2C)N2CCN(C)CC2)cc1 (centres undefined) | -22.88%
Cc1n[nH]c(C)c1NC(=O)CN1CCc2c(nc(C3CC3)n2C)C1 | -13.5%
CNC(=O)c1ccc(CN2CCN(C3=NCC(C)(C)S3)CC2)cc1 | -9.099%
Cl.Cl.[H][C@@]12CN(CCc3ccccc3)C[C@]1([H])C2CN (some centres undefined) | -25.12%
[H][C@@]12C[C@H](C(=O)NCC3CC3)[C@@]([H])(CN(C(=O)NCc3ccccc3)C1)O2 | 13.29%
Cc1cc(CN2CCN(C(=O)NC(C)Cn3ccnc3)CC2)no1 (centres undefined) | 12.98%
Cc1ccc2nc(CN3CCC(O)(Cn4ccnc4)CC3)cc(O)c2c1 | -29%
CCn1ncc2[nH]c(-c3cc(OC)c(OC)cc3OC)nc21 | -20.01%
CCc1nnc2n1CCN(C(=O)c1ccc3c(c1)nnn3C)C2 | -8.487%
Cn1cc(C2CCCN2C(=O)Cc2coc(-c3ccccc3)n2)cn1 (centres undefined) | -9.422%
Cc1ccc(CN2CCc3nnc(CN4CCCC4=O)n3CC2)s1.O=C(O)C(F)(F)F | -8.469%
COc1ccc(CNC(=O)NC2CCN(CC3CCCC3)CC2)cn1 | 14.29%
O=C(O)C(F)(F)F.[H][C@]12CCCN(Cc3nccs3)[C@@]1([H])CN(C(=O)c1ccco1)C2 | -27.05%
O=C(C1CCCO1)N1CCCn2c(nnc2Cn2cccn2)C1 (centres undefined) | -21.87%
CCc1nnsc1C(=O)N1CCN(CC(O)C(C)(C)C)CC1 (centres undefined) | -25.09%
[H][C@@]12CN(Cc3ccccc3C)C[C@]1([H])OCC(=O)N2CC(N)=O | -7.509%
CS(=O)(=O)N1CCN(Cc2csc(-c3ncccn3)n2)CC1 | -7.019%
CCCOC(=O)N1CCCC(c2nnc(CN3CCOCC3)n2C)C1 (centres undefined) | -16.89%
NC(=O)c1ccc(CN2CCC(N3CCCC3)CC2)cc1 | 0.4365%
O=C(O)C(F)(F)F.O=C(O)C(F)(F)F.O=C(c1ccncc1)N1CCOC2(COCCN(c3cccnc3)C2)C1 (centres undefined) | -13.19%
C[C@@H]1CN(Cc2ccccn2)C[C@]12CCN(Cc1cccnc1)C2=O.O=C(O)C(F)(F)F.O=C(O)C(F)(F)F.O=C(O)C(F)(F)F | -8.832%
N#CCCN(Cc1cccnc1)C(=O)c1cccc(-n2cnnn2)c1 | -22.29%
CCS(=O)(=O)c1ccc2oc([C@H]3CCN(CC4CCCCC4)C3)nc2c1 | -35.35%
O=C(O)C(F)(F)F.[H][C@@]12CCN(Cc3ccco3)[C@]1([H])CC[C@H](COC)O2 | -6.92%
Cc1cccc(N2CCN(C(=O)Nc3cnn(CC(N)=O)c3)CC2)c1 | 43.33%
Cc1cnn(CC2CN(Cc3csc(C(C)C)n3)CCO2)c1 (centres undefined) | -1.893%
O=C(c1ccnc(NC2CC2)c1)N1CCCC1c1cccc(Br)c1 (centres undefined) | -23.61%
O=C(c1ccc2cc[nH]c2c1)N1CCC(Nc2cccnn2)CC1 | -21.87%
CC(C)c1cnc(CN(C)C2CCN(CCS(C)(=O)=O)C2)o1 (centres undefined) | 7.399%

The values are deposited in ChEMBL (CHEMBL3988442, “University of Dundee, Small-Polar-MMV Screening Library” (2021)).